Data as given in PubChem BioAssay AID686943 (Drosophila RNAi Screening Center, 2013).
Test: 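Search across the genome for regulators of signalling from receptor tyrosine kinase to ERK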 (primary screen). Cells: Drosophila S2R+ haemocyte-like cells expressing YFP-tagged ERK (Rolled). Reagents: long dsRNA against Drosophila genes. Treatment: insulin stimulation versus unstimulated cells; dose and duration not given. Measured: 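Per-plate z-scores of phospho-ERK immunostaining normalised to YFP-tagged ERK, measured with and without insulin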. Direction: replicate 1, z-score of dpERK with insulin: higher = more active ERK per ERK-YFP after insulin.
The screen tested about 23,000 reagents; shown is a random part of those with a known target gene and a result. 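Extra replicates exist only for a retested subset of genes; insulin dose and duration not given; both raised and lowered dpERK matter.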 Not all columns of the deposit are shown. Not stated in the record: the amount of reagent, the time to read-out.

CG13675 [DRSC08908] | replicate 1, z-score of dpERK with insulin: -0.29
CG13675 [DRSC10034] | replicate 1, z-score of dpERK with insulin: -5.84
Zw10 [DRSC18793] | replicate 1, z-score of dpERK with insulin: -0.94
Slip1 [DRSC17146] | replicate 1, z-score of dpERK with insulin: -0.29
CG31010 [DRSC14006] | replicate 1, z-score of dpERK with insulin: 0.16
Traf4 [DRSC00445] | replicate 1, z-score of dpERK with insulin: 2.77
Traf4 [DRSC00794] | replicate 1, z-score of dpERK with insulin: 0.1
CG10866 [DRSC08171] | replicate 1, z-score of dpERK with insulin: 0.34
Cda5 [DRSC00003] | replicate 1, z-score of dpERK with insulin: -0.09
Cda5 [DRSC00529] | replicate 1, z-score of dpERK with insulin: 0.07
Cda5 [DRSC00532] | replicate 1, z-score of dpERK with insulin: -0.2
Cda5 [DRSC21330] | replicate 1, z-score of dpERK with insulin: -4.28
CG13075 [DRSC09958] | replicate 1, z-score of dpERK with insulin: 0.47
Arpc4 [DRSC02917] | replicate 1, z-score of dpERK with insulin: -1.96
wda [DRSC15579] | replicate 1, z-score of dpERK with insulin: 1.04
wda [DRSC22351] | replicate 1, z-score of dpERK with insulin: 0.74

Next part, starting with the last 5 of the part before.
Cda5 [DRSC21330] | replicate 1, z-score of dpERK with insulin: -4.28
CG13075 [DRSC09958] | replicate 1, z-score of dpERK with insulin: 0.47
Arpc4 [DRSC02917] | replicate 1, z-score of dpERK with insulin: -1.96
wda [DRSC15579] | replicate 1, z-score of dpERK with insulin: 1.04
wda [DRSC22351] | replicate 1, z-score of dpERK with insulin: 0.74
stmA [DRSC05120] | replicate 1, z-score of dpERK with insulin: -0.17
stmA [DRSC07593] | replicate 1, z-score of dpERK with insulin: -0.76
stmA [DRSC22179] | replicate 1, z-score of dpERK with insulin: -0.19
Mcad [DRSC09871] | replicate 1, z-score of dpERK with insulin: 0.09
msd1 [DRSC08383] | replicate 1, z-score of dpERK with insulin: 0.08
CG18809 [DRSC19818] | replicate 1, z-score of dpERK with insulin: -1.61
ACXB [DRSC00845] | replicate 1, z-score of dpERK with insulin: -0.42
CG5112 [DRSC15718] | replicate 1, z-score of dpERK with insulin: 0.01
Ufd4 [DRSC02871] | replicate 1, z-score of dpERK with insulin: -1.38
Ufc1 [DRSC07156] | replicate 1, z-score of dpERK with insulin: 0.01
CG34002 [DRSC09512] | replicate 1, z-score of dpERK with insulin: 1.61
dor [DRSC18765] | replicate 1, z-score of dpERK with insulin: 1.24
CG15337 [DRSC18020] | replicate 1, z-score of dpERK with insulin: 0.49
CG15337 [DRSC22778] | replicate 1, z-score of dpERK with insulin: 1.32
CG30350 [DRSC07690] | replicate 1, z-score of dpERK with insulin: 0.24
Irc [DRSC16454] | replicate 1, z-score of dpERK with insulin: 0.46
CG43068 [DRSC05538] | replicate 1, z-score of dpERK with insulin: -1.04
CG34129 [DRSC15960] | replicate 1, z-score of dpERK with insulin: -1.1
CG43174 (retired record) [DRSC09518] | replicate 1, z-score of dpERK with insulin: -0.16
GNBP3 [DRSC11170] | replicate 1, z-score of dpERK with insulin: 0.22
Vps11 [DRSC11909] | replicate 1, z-score of dpERK with insulin: 0.51
Vps11 [DRSC21579] | replicate 1, z-score of dpERK with insulin: 0.11
CG9837 [DRSC16573] | replicate 1, z-score of dpERK with insulin: 0.58
AMPdeam [DRSC18996] | replicate 1, z-score of dpERK with insulin: 0.73
AMPdeam [DRSC19366] | replicate 1, z-score of dpERK with insulin: -0.66
AMPdeam [DRSC19368] | replicate 1, z-score of dpERK with insulin: 2.11
AMPdeam [DRSC19727] | replicate 1, z-score of dpERK with insulin: -0.53
